Publication PMC13615677
Results are given in words; binding and its absence hold for the method and conditions named. In cells and extracts the contact can be indirect. Some binding calls cover weakened binding; strength is not graded here.

Sequences of proteins named here, by UniProt entry; tags and fusion partners are left off. Residues count along the entry.
UniProt P70302, residues 23-685: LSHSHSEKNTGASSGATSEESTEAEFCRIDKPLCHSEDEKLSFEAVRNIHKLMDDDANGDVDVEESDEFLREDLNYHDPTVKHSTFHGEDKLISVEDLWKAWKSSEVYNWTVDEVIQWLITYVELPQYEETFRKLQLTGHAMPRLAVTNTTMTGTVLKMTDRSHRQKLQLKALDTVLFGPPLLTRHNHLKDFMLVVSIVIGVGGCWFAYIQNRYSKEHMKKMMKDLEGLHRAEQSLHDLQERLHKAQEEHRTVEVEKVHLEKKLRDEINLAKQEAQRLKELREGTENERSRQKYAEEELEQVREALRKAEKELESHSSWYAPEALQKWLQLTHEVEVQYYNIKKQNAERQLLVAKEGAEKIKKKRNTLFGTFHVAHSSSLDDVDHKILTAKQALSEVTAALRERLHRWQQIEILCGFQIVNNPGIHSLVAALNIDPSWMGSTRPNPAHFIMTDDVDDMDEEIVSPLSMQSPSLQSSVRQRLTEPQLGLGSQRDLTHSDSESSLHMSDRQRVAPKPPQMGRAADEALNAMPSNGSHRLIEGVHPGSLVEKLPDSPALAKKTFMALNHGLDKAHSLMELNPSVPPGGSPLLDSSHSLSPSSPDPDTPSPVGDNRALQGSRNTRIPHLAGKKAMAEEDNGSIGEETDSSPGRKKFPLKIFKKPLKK

Key:
[1] = biological target: T1, DHHC21 (zDHHC21), wild type (mouse (endogenous in spleen)) (UniProt Q9D270); test: co-IP; spleen lysates (1 mg; 1% dodecyl-β-D-maltoside in DPBS) of WT and depilated mice; anti-zDHHC21 polyclonal antibody overnight at 4°C, protein A agarose 1 h at RT, three washes in lysis buffer; western blot for STIM1
T1 sequence: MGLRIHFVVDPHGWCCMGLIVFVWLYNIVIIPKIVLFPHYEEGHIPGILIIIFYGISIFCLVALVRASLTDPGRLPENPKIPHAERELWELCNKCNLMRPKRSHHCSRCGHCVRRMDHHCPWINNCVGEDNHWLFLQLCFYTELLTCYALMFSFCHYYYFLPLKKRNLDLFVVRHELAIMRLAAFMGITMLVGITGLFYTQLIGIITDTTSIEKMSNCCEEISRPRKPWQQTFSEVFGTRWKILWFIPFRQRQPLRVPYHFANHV

[2] = biological target: T2, DHHC21 ΔF233 (depilated mutant) (mouse (endogenous in spleen)) (UniProt Q9D270); test: as above
T2 sequence: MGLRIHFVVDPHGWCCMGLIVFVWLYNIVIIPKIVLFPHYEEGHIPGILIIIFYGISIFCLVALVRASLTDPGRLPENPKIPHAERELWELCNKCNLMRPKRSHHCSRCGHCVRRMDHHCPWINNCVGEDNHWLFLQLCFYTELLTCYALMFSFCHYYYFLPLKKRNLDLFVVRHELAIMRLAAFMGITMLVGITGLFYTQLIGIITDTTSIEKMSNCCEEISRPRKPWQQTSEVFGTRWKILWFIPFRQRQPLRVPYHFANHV

Substance: stromal interaction molecule 1 (STIM1) (from UniProt P70302 23-685)
- binding [1]: binds
- binding [2]: binds
